For part of these data: Strings that start with PEPTIDE1 are HELM notation: dots part the residues, brackets hold end groups and non-standard residues.
Tests used:
[1] = general procedure: Fmoc solid-phase peptide synthesis; Fmoc-Sieber PS resin (0.59 mmol/g); HBTU/HOBt/DIPEA; conditions: for final HPLC purity: 220 nm
[2] = general procedure: Fmoc solid-phase peptide synthesis; Fmoc-Sieber PS resin; HBTU/HOBt/DIPEA; conditions: whole synthesis, tetrakis(hydrotrifluoroacetate)

Substance	final HPLC purity ([1]; conjugation step, TFA salt)	conjugation yield ([1]; conjugation step, TFA salt)	also measured
PEPTIDE1{[Suc].[Arg(carbHexyne)].Y.[Arg(carbC4N)].L.R.Y.[am]}$PEPTIDE1,PEPTIDE1,1:R3-4:R3$$$V2.0	–	–	final HPLC purity ([1]; cyclisation step, TFA salt): 98%; cyclisation yield ([1]; cyclisation step, on linear precursor 10, TFA salt): 21%
PEPTIDE1{[Suc].[Arg(carbPy5)].Y.[Arg(carbC4N)].L.R.Y.[am]}$PEPTIDE1,PEPTIDE1,1:R3-4:R3$$$V2.0	95%	27%	–
PEPTIDE1{[S0223].[GABA].[bDAsp].R.Y.[Arg(carbC4N)].L.R.Y.[am]}$PEPTIDE1,PEPTIDE1,3:R3-6:R3$$$V2.0	96%	70%	–
PEPTIDE1{[Cy3B-pentynoyl].[GABA].[bDAsp].R.Y.[Arg(carbC4N)].L.R.Y.[am]}$PEPTIDE1,PEPTIDE1,3:R3-6:R3$$$V2.0	99%	35%	–
N^α-Succinyl-N^ω[hex-5-ynylaminocarbonyl]-Arg-Tyr-N^ω-[(aminobutyl)aminocarbonyl] Arg-Leu-Arg-Tyr-Amide Tetrakis(hydrotrifluoroacetate)	–	–	isolated mass [2]: 37.65 mg; isolated yield ([1]; whole synthesis, overall, scale of the general procedure 100 mg resin, TFA salt): 37%
PEPTIDE1{[Py1-butanoyl].[bDAsp].R.Y.[Arg(carbC4N)].L.R.Y.[am]}$PEPTIDE1,PEPTIDE1,2:R3-5:R3$$$V2.0	97%	34%	–
